{
  "sequences": {"note": "Chains of the proteins cited; added tags and fusions are not shown. Lines headed by an entry give the natural chain unless they say otherwise; changes in a name come on top. Residues count along the entry.", "UniProt P26599": "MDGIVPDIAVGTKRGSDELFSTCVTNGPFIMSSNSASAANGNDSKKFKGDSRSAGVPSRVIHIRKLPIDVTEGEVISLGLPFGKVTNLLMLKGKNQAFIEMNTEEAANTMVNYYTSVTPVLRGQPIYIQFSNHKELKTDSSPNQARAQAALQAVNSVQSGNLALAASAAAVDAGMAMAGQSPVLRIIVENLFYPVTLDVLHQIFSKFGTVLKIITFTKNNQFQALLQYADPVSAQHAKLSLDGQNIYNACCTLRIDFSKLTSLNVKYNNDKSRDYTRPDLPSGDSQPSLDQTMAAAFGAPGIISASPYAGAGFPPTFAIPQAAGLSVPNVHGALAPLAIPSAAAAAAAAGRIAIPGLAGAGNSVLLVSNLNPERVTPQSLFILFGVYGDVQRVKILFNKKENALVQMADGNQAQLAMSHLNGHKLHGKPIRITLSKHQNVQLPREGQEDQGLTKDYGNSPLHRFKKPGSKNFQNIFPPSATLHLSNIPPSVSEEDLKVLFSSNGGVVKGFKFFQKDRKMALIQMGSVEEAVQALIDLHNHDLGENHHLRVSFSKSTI", "UniProt Q07955, 2-248": "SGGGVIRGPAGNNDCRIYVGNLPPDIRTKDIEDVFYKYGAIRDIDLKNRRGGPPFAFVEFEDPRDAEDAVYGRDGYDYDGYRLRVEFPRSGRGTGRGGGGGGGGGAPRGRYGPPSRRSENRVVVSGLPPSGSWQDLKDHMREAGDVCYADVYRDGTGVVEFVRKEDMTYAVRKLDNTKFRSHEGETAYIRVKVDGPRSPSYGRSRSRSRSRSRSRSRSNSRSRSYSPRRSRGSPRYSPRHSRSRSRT"},
  "source": "patent US20170327825",
  "assay_in_all_cases": "pull-down",
  "key": {"RBFOX2": {"molecular_target": "T1, RBFOX2 (UniProt O43251)", "T1 sequence (looked up, limits assumed)": "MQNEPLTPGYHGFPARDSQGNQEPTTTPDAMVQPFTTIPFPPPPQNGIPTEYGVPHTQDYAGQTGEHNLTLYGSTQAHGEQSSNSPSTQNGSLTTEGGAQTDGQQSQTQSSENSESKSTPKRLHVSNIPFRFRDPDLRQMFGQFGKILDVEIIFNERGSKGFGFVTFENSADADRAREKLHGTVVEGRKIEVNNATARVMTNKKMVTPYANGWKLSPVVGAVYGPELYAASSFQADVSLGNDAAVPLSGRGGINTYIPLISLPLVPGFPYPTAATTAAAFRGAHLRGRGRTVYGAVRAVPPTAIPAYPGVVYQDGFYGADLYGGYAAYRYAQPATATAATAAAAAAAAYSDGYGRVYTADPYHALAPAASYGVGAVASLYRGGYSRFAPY", "details": "2'-OMe; nuclear extract, streptavidin beads blocked with heparin, western blot; protein in an extract; protein details: overexpressed in HEK293 nuclear extract; label: biotin"}, "PTBP1 (Homo sapiens)": {"molecular_target": "PTBP1 (Homo sapiens) (UniProt P26599)", "details": "2'-OMe; nuclear extract, streptavidin beads blocked with heparin, western blot; protein in an extract; protein details: HEK293 nuclear extract; label: biotin"}, "SRSF1 (SF2/ASF)": {"molecular_target": "SRSF1 (SF2/ASF) (UniProt Q07955)", "details": "2'-OMe; nuclear extract, streptavidin beads blocked with heparin, western blot; repeat number of the pulldown oligo not stated (three/four), n=3 sequence given; protein in an extract; protein details: overexpressed in HEK293 nuclear extract; label: biotin"}},
  "note": "For at least one entry, the source does not settle the construct or the ends of the probe. At least one result comes from cells or an extract, where the contact may be indirect. For part of these data: Where a protein sequence is shown, tags need not be part of it.",
  "data": [
    {"sequence": "UGCAUGUGCAUGUGCAUGUGCAUG [RBFOXi (RBFOX1/2 decoy, 4 repeats)]", "values": [
      {"measurement": "binding result", "setting": "RBFOX2", "value": "binds"}
    ]},
    {"sequence": "CUCUCUCUCUCUCUCUCUCUCUCU [PTBP1i (PTBP1 INHIB1X4)]", "values": [
      {"measurement": "binding result", "setting": "PTBP1 (Homo sapiens)", "value": "binds"}
    ]},
    {"sequence": "CGCAGGACGCAGGACGCAGGA [SF2i2 (SRSF1 decoy, CGCAGGA repeats)]", "values": [
      {"measurement": "binding result", "setting": "SRSF1 (SF2/ASF)", "value": "binds"}
    ]}
  ]
}
